# Results taken from article PMC8384837.
# Positions count from the first letter of the chain named. This is one part of the list.
# Assays:
# Conditions in all cases: yeast three-hybrid, YBZ-1, SC-Leu-His + 0.5 mM 3-AT, 4 days
# [1] = target: T1, PUM1 PUF domain R1-AWR S863A + R864W + Q867R (Homo sapiens) (UniProt Q14671)
# T1 sequence: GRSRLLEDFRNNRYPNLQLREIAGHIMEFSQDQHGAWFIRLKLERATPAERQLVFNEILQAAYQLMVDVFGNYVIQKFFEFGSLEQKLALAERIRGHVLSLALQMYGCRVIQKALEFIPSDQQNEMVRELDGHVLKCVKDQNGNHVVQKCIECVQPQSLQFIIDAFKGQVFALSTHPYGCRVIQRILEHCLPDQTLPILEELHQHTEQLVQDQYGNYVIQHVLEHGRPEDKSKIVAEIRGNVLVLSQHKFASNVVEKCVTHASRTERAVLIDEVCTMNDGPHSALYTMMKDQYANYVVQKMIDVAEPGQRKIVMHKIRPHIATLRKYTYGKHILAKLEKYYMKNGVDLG
# [2] = target: T2, PUM1 PUF domain R1-CRR S863C + Q867R (Homo sapiens) (UniProt Q14671)
# T2 sequence: T1 sequence with A36C, W37R
# [3] = target: T3, PUM1 PUF domain R1-GGQ S863G + R864G (Homo sapiens) (UniProt Q14671)
# T3 sequence: T1 sequence with A36G, W37G, R40Q
# [4] = target: T4, PUM1 PUF domain R1-GHR S863G + R864H + Q867R (Homo sapiens) (UniProt Q14671)
# T4 sequence: T1 sequence with A36G, W37H
# [5] = target: T5, PUM1 PUF domain R1-GIR S863G + R864I + Q867R (Homo sapiens) (UniProt Q14671)
# T5 sequence: T1 sequence with A36G, W37I
# [6] = target: T6, PUM1 PUF domain R1-IRR S863I + Q867R (Homo sapiens) (UniProt Q14671)
# T6 sequence: T1 sequence with A36I, W37R
# [7] = target: T7, PUM1 PUF domain R1-KAR S863K + R864A + Q867R (Homo sapiens) (UniProt Q14671)
# T7 sequence: T1 sequence with A36K, W37A
# [8] = target: T8, PUM1 PUF domain R1-KGR S863K + R864G + Q867R (Homo sapiens) (UniProt Q14671)
# T8 sequence: T1 sequence with A36K, W37G
# [9] = target: T9, PUM1 PUF domain R1-KRG S863K + Q867G (Homo sapiens) (UniProt Q14671)
# T9 sequence: T1 sequence with A36K, W37R, R40G
# [10] = target: T10, PUM1 PUF domain R1-NLR S863N + R864L + Q867R (Homo sapiens) (UniProt Q14671)
# T10 sequence: T1 sequence with A36N, W37L
# [11] = target: T11, PUM1 PUF domain R1-NRR S863N + Q867R (Homo sapiens) (UniProt Q14671)
# T11 sequence: T1 sequence with A36N, W37R
# [12] = target: T12, PUM1 PUF domain R1-RAV S863R + R864A + Q867V (Homo sapiens) (UniProt Q14671)
# T12 sequence: T1 sequence with A36R, W37A, R40V
# [13] = target: T13, PUM1 PUF domain R1-RMS S863R + R864M + Q867S (Homo sapiens) (UniProt Q14671)
# T13 sequence: T1 sequence with A36R, W37M, R40S
# [14] = target: T14, PUM1 PUF domain R1-RNR S863R + R864N + Q867R (Homo sapiens) (UniProt Q14671)
# T14 sequence: T1 sequence with A36R, W37N
# [15] = target: T15, PUM1 PUF domain R1-RRI S863R + Q867I (Homo sapiens) (UniProt Q14671)
# T15 sequence: T1 sequence with A36R, W37R, R40I
# [16] = target: T16, PUM1 PUF domain R1-RRR S863R + Q867R (Homo sapiens) (UniProt Q14671)
# T16 sequence: T1 sequence with A36R, W37R
# [17] = target: T17, PUM1 PUF domain R1-SLR R864L + Q867R (Homo sapiens) (UniProt Q14671)
# T17 sequence: T1 sequence with A36S, W37L
# [18] = target: T18, PUM1 PUF domain R1-SPR R864P + Q867R (Homo sapiens) (UniProt Q14671)
# T18 sequence: T1 sequence with A36S, W37P
# [19] = target: T19, PUM1 PUF domain R1-VFR S863V + R864F + Q867R (Homo sapiens) (UniProt Q14671)
# T19 sequence: T1 sequence with A36V, W37F
# [20] = target: T20, PUM1 PUF domain R1-VWK S863V + R864W + Q867K (Homo sapiens) (UniProt Q14671)
# T20 sequence: T1 sequence with A36V, R40K
sequence,measurement,setting,value
GGCUAGAACUAGUGGAUCCCCCGGCGCCCGGCGGCUCGAGCCCGGGUAAGUGUAAAUGGUCUGCAUGCCGCCGGGCGCCAUGCCUGCAGGUCGACUCUAGAAAACAUG,binding signal (log2 enrichment (interaction score)),[1],-1.67
same,binding signal (log2 enrichment (interaction score)),[2],-1.54
same,binding signal (log2 enrichment (interaction score)),[3],-0.95
same,binding signal (log2 enrichment (interaction score)),[4],-0.81
same,binding signal (log2 enrichment (interaction score)),[5],-1.52
same,binding signal (log2 enrichment (interaction score)),[6],-0.98
same,binding signal (log2 enrichment (interaction score)),[7],-1.6
same,binding signal (log2 enrichment (interaction score)),[8],-1
same,binding signal (log2 enrichment (interaction score)),[9],-1.69
same,binding signal (log2 enrichment (interaction score)),[10],-1.64
same,binding signal (log2 enrichment (interaction score)),[11],-0.97
same,binding signal (log2 enrichment (interaction score)),[12],-1.43
same,binding signal (log2 enrichment (interaction score)),[13],-0.8
same,binding signal (log2 enrichment (interaction score)),[14],-1.08
same,binding signal (log2 enrichment (interaction score)),[15],-1.19
same,binding signal (log2 enrichment (interaction score)),[16],-1.03
same,binding signal (log2 enrichment (interaction score)),[17],-0.87
same,binding signal (log2 enrichment (interaction score)),[18],-1.35
same,binding signal (log2 enrichment (interaction score)),[19],-0.96
same,binding signal (log2 enrichment (interaction score)),[20],-1.5

# Part of the list above, tab-delimited.
sequence	measurement	setting	value
GGCUAGAACUAGUGGAUCCCCCGGCGCCCGGCGGCUCGAGCCCGGGUAAGUGUAAAUGGUCUGCAUGCCGCCGGGCGCCAUGCCUGCAGGUCGACUCUAGAAAACAUG	binding signal (log2 enrichment (interaction score))	[12]	-1.43
same	binding signal (log2 enrichment (interaction score))	[13]	-0.8
